Measurements published in paper PMC5897841, “Development of a multipurpose scaffold for the display of peptide loops” (Protein Engineering, Design and Selection, 2017).
Results are given in words; binding and its absence hold for the method and conditions named.

Amino acid sequences for entries named in this document (tags omitted). Residues count along the entry.
UniProt P68400, residues 2-329: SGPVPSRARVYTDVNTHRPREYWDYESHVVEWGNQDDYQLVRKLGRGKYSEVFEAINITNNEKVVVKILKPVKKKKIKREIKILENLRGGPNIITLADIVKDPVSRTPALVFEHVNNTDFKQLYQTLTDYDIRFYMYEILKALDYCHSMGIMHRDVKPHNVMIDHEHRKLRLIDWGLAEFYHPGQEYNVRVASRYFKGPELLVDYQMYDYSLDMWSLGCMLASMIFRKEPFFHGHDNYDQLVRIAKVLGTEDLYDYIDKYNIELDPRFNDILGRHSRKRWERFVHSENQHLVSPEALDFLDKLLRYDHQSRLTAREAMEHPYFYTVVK

Key:
CK2α kinase (human) [1] = biological target: CK2α kinase (human) (UniProt P68400); assay: AUC; sedimentation velocity, absorbance at 280 nm, 50 000 rpm, 20°C, 20 mM HEPES pH 7.5, 500 mM NaCl; single proteins and mixtures (5 μM each CK2α and RAD-CK2β; 10 μM each Aurora A D274N and RAD-TPX2); both purified
CK2α kinase (human) [2] = biological target: CK2α kinase (human) (UniProt P68400); assay: SEC; analytical Superdex 75 5/150, 20 mM HEPES pH 7.5, 500 mM NaCl; single proteins and equimolar mixture; fractions checked by SDS-PAGE; both purified

CK2α kinase (from UniProt P68400 2-329) (enzyme)
binding (CK2α kinase (human) [1]): no binding (tested: 6 μM) | binding (CK2α kinase (human) [2]): no binding
